Measured values taken from PubChem BioAssay AID651702 (NMMLSC, 2012).
The whole screen tested about 360,000 compounds, of which about 2,400 (0.67%) were called active. This list was built around the results that the source calls inconclusive (neither active nor inactive); the mix of calls is not that of the screen.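 Rule for the calls: active = inhibition above about 55% (limit read from the data); inconclusive = no clear call, values can overlap the other calls; inactive = the rest.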

Assay: LAMP-1 surface exposure blockers, TALL-104 cells – cell-based, flow cytometry, MLPCN library, primary screen (AID 651702)
Settings: TALL-104 LAMP-1 surface exposure, cells stimulated with thapsigargin and PMA; at 10 µM, stronger effect = higher value

| SMILES | inhibition |
| --- | --- |
| COc1ccc(CNS(=O)(=O)NCc2ccc(C)cc2)cc1OC | inconclusive |
| COc1cc2c(cc1OC)C(C)N(C(=O)CCN1C(=O)C3C4C=CC(C4)C3C1=O)CC2 (configuration not stated) | inconclusive |
| CCOC(=O)C1CCCN(C(=O)Cn2sc3nc(C)cc(C)c3c2=O)C1 (configuration not stated) | active: 84.4% |
| CCCCCNC(=O)c1ccc2c(c1)ncn2-c1ccc(OC)cc1 | inconclusive |
| Cc1c(CN2CCC(CO)(CCOc3ccccc3)CC2)[nH]c2ccc(Cl)cc12 | active: 64.1% |
| Oc1ccc2ccccc2c1/C=C/c1ccc2c(Br)cc(Br)c(O)c2n1 | inactive: 5.4% |
| CN(C)S(=O)(=O)c1cccc(NC(=S)N/N=C/c2cccc(O)c2)c1 | inactive: -15% |
| C=CCSc1nc2c(C(=O)OCC)nnn2c2ccccc12 | active: 80.9% |
| CCCCCC(=O)Nc1sc(C)c(C)c1C#N | inactive: 4.4% |
| COc1ccccc1C(=O)Nc1c(C(=O)N(CCN(C)C)Cc2ccco2)oc2ccccc12 | active: 65.8% |
| COC(=O)C1C(c2ccccc2)C(C(=O)OCc2ccco2)C1c1ccccc1 (configuration not stated) | active: 69.4% |
| Cn1nccc1CNC(=O)c1c(Cl)cnn1C | inconclusive |
| O=C(NCc1ccccn1)c1ccc(Cl)c(S(=O)(=O)N2CCOCC2)c1 | inactive: 8.9% |
| COc1ccccc1C1CCN(Cc2cccc3ccccc23)CC1 | active: 59.7% |
| CCN1CCn2c3c(c4cc(C)ccc42)CCCC31 (configuration not stated) | inconclusive |
| Cc1cccc(N2CCC(NCc3c(C(=O)N4CCCCC4)nc4c(C)cccn34)CC2)c1 | active: 60.5% |
| CCCCn1c(SCC(=O)Nc2nccs2)nc2ccccc2c1=O | inactive: 19% |
| Cc1ccccc1CN1CCC(CNC(=O)Nc2ccc(F)cc2F)CC1 | inconclusive |
| O=C1NC[C@H](Cc2ccccc2)N(CC2CCN(CCC34CC5CC(CC(C5)C3)C4)CC2)C1=O | inactive: -3.9% |
| CCOc1ccc(OCc2ccc(C(=O)NCc3cccnc3)o2)cc1 | inactive: -3% |
| Cc1ccc2nc(C)/c(=N\O)c(C)nc2c1 | inactive: 2% |
| CCN(CC)S(=O)(=O)c1ccc(C(=O)N2CCN(C3=NS(=O)(=O)c4ccccc43)CC2)cc1 | inconclusive |
| Cc1cc(C)nc(NC(=NCCc2c[nH]c3ccccc23)NC(=O)c2ccco2)n1 | active: 94.6% |
| CCN(C(=O)CN1C(=O)S/C(=C\c2cccc(OC)c2)C1=O)C1CCS(=O)(=O)C1 (configuration not stated) | inconclusive |

| SMILES | inhibition |
| --- | --- |
| CN(C)S(=O)(=O)c1cccc(NC(=O)CSc2nc3c(cc2C#N)C(=O)CC(C)(C)C3)c1 | inconclusive |
| O=[N+]([O-])c1cc(C(F)(F)F)ccc1N1CCN(S(=O)(=O)c2ccc3c(c2)CCCC3)CC1 | inconclusive |
| O=C(CSc1nnc(-c2ccc(NS(=O)(=O)c3ccccc3)cc2)o1)NCC1CCCO1 (configuration not stated) | inconclusive |
| Cc1cc(Nc2cc(Cl)cc(Cl)c2)nc(N)n1 | active: 61.6% |
| CCOc1ccc(OCCC(=O)OCC(=O)c2c(N)n(CC(C)C)c(=O)n(C)c2=O)cc1 | inconclusive |
| CCN(CC)S(=O)(=O)c1ccc(C)c(NC(=O)CN2CCN(Cc3ccccc3)CC2)c1 | inconclusive |
| Cc1ccc(CS(=O)(=O)c2ncc(Cl)c(C(=O)Nc3nnc(C)s3)n2)cc1 | inconclusive |
| COc1ccccc1N1CCN(C(=S)NC(=O)c2ccc([N+](=O)[O-])cc2)CC1 | inconclusive |
| Cc1ccc(S(=O)(=O)CCC(=O)OCC(=O)c2c[nH]c3ccccc23)cc1 | inconclusive |
| O=C(CCCCCNC(=O)c1ccccc1)N/N=C/c1ccco1 | inconclusive |
| Cc1ccc(S(=O)(=O)N2CCC(C(=O)OC3CCOC3=O)CC2)cc1C (configuration not stated) | inactive: 0.3% |
| CCCc1[nH]n(-c2ccc([N+](=O)[O-])cc2)c(=O)c1C(C)=NCc1ccncc1 | inconclusive |
| CC(CCc1ccccc1)NC(=O)Cc1ccc([N+](=O)[O-])cc1 (configuration not stated) | inactive: -4.6% |
| O=C(Nc1cnc2ccccc2c1)c1cccnc1 | inactive: -1.1% |
| COc1ccc(NC(=O)c2cccc([N+](=O)[O-])c2)cc1 | inactive: -2.6% |
| O=C(Nc1ccc2c(c1)[nH]c(=O)c1ccccc12)C(F)(F)F | inactive: 7% |
| CN(C)c1cccc(C(=O)NCc2ccc3c(c2)OCO3)c1 | inconclusive |
| COc1cc(OC)c(C2C(C(=O)Nc3ccccc3)=C(C)Nc3ncnn32)cc1OC (configuration not stated) | inactive: 1.8% |
| CCCCCCCCNCCS(=O)(=O)NCc1ccccc1 | active: 63.1% |
| COc1ccc(/C=C/C(=O)OCC(=O)NCc2ccccc2Cl)cc1OC | inactive: -0.1% |
| CC(C)c1cccc(-c2csc(C(O)c3ccccc3)n2)c1 (configuration not stated) | inconclusive |
| CCOc1ccc(NC(=O)c2cnccn2)cc1 | inactive: 1.2% |
| Cc1ccc(-n2c(-c3ccc(Cl)cc3)n[nH]c2=S)cc1 | inconclusive |
